Among the data in the supplement of paper PMC12819154, “High-throughput peptide-centric local stability assay extends protein–ligand identification to membrane proteins, tissues and bacteria” (Nature Structural & Molecular Biology, 2025) are log2 fold change values, retold here.

The chains behind the UniProt entries cited, without tags or fusion partners. Where a name states a change or a piece, a line headed by the entry shows the natural chain unless it says otherwise.
UniProt O75676: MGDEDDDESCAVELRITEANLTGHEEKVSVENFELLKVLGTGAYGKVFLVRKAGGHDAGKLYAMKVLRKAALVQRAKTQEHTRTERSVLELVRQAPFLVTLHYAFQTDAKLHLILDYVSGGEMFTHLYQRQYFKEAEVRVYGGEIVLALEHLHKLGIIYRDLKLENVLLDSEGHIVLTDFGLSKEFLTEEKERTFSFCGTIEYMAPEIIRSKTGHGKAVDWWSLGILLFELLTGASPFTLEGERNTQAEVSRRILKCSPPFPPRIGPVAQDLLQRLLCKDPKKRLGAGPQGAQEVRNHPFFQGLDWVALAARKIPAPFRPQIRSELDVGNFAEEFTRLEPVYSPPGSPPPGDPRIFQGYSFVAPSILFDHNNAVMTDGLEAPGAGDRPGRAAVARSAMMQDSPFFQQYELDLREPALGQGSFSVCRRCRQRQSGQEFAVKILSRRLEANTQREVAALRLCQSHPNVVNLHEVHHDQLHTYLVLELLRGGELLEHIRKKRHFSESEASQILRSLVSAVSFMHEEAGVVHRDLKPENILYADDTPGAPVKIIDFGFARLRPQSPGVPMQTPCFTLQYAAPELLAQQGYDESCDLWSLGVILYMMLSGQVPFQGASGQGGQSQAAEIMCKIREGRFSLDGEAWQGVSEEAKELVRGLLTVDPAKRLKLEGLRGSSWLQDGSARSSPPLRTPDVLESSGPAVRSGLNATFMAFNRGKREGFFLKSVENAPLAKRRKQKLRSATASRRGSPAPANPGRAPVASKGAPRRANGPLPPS
UniProt O95613: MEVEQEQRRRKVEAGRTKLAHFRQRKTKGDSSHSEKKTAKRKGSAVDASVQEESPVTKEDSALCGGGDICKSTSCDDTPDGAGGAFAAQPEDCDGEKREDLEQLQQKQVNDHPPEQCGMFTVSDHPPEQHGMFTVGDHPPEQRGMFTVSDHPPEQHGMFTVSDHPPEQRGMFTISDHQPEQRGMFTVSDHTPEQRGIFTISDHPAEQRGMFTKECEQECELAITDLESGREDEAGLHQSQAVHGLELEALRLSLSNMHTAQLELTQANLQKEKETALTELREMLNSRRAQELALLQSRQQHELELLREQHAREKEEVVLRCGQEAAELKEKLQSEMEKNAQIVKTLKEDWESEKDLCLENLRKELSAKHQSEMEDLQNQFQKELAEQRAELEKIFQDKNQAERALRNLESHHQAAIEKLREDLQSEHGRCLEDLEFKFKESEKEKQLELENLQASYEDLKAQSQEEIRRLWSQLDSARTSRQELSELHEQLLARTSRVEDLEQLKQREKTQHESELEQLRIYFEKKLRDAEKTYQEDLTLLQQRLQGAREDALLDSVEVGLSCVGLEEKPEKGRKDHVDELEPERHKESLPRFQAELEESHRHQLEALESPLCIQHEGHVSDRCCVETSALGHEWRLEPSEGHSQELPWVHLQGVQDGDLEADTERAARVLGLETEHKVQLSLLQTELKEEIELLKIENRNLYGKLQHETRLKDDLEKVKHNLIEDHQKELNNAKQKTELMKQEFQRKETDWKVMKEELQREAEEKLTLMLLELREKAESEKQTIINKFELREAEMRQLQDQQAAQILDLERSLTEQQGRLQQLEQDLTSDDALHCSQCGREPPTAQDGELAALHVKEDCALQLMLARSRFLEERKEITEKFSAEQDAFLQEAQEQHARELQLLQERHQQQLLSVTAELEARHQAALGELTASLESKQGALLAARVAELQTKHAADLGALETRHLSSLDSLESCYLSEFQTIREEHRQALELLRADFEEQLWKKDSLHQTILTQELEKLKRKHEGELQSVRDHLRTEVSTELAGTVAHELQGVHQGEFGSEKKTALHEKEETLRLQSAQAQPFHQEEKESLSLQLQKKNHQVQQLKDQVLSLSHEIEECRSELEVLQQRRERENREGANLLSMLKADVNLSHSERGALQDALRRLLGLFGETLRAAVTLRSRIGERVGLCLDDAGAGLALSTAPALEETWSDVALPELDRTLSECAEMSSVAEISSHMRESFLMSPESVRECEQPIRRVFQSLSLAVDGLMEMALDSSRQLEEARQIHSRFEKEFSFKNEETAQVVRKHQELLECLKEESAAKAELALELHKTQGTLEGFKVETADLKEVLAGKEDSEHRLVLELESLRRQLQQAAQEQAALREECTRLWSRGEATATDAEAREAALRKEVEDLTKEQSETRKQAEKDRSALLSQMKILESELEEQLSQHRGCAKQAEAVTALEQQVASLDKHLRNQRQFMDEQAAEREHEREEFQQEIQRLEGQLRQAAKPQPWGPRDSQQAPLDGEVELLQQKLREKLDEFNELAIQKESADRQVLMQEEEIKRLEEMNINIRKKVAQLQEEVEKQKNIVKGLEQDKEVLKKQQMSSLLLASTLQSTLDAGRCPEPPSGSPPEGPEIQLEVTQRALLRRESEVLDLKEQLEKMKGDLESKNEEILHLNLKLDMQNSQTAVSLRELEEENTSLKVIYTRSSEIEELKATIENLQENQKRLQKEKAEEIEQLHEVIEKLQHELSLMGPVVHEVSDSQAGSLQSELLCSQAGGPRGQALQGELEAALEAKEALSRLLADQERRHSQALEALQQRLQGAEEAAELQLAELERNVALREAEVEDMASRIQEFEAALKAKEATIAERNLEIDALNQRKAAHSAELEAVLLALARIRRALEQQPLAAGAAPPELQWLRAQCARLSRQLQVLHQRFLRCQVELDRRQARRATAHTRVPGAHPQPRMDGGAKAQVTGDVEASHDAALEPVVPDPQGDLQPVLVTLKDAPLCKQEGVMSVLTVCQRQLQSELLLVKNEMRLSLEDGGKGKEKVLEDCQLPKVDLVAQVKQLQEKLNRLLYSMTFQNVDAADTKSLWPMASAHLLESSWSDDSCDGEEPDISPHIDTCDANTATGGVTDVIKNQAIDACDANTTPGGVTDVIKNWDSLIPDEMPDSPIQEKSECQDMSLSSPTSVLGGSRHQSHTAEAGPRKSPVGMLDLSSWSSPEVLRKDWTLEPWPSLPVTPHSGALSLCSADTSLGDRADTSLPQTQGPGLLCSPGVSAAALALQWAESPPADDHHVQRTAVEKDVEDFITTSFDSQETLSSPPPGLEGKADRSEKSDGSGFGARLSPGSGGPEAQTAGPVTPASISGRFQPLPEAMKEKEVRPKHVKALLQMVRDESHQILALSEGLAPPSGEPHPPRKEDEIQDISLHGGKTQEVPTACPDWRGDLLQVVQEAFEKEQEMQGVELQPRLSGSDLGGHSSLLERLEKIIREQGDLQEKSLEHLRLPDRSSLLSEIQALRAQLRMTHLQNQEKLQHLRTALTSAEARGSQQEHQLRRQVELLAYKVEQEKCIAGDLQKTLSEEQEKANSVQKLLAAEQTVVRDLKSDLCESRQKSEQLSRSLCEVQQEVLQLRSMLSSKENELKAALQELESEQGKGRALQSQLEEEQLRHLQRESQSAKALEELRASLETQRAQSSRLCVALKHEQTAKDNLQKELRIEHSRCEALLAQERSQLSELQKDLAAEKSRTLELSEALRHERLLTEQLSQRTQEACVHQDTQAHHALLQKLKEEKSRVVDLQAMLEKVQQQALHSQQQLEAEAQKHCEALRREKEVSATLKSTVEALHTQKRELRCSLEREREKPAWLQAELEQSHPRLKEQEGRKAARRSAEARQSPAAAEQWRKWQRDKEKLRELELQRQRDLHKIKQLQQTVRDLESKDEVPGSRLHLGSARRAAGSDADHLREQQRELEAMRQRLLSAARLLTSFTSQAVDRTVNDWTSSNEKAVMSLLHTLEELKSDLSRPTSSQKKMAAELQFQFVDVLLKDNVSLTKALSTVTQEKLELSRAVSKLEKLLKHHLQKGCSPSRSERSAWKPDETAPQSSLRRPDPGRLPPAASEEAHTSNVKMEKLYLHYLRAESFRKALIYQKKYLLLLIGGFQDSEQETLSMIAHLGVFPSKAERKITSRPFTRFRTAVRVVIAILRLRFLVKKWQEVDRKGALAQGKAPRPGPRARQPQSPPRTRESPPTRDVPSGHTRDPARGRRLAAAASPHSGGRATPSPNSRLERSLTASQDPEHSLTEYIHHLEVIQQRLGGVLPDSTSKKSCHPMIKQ
UniProt O94885: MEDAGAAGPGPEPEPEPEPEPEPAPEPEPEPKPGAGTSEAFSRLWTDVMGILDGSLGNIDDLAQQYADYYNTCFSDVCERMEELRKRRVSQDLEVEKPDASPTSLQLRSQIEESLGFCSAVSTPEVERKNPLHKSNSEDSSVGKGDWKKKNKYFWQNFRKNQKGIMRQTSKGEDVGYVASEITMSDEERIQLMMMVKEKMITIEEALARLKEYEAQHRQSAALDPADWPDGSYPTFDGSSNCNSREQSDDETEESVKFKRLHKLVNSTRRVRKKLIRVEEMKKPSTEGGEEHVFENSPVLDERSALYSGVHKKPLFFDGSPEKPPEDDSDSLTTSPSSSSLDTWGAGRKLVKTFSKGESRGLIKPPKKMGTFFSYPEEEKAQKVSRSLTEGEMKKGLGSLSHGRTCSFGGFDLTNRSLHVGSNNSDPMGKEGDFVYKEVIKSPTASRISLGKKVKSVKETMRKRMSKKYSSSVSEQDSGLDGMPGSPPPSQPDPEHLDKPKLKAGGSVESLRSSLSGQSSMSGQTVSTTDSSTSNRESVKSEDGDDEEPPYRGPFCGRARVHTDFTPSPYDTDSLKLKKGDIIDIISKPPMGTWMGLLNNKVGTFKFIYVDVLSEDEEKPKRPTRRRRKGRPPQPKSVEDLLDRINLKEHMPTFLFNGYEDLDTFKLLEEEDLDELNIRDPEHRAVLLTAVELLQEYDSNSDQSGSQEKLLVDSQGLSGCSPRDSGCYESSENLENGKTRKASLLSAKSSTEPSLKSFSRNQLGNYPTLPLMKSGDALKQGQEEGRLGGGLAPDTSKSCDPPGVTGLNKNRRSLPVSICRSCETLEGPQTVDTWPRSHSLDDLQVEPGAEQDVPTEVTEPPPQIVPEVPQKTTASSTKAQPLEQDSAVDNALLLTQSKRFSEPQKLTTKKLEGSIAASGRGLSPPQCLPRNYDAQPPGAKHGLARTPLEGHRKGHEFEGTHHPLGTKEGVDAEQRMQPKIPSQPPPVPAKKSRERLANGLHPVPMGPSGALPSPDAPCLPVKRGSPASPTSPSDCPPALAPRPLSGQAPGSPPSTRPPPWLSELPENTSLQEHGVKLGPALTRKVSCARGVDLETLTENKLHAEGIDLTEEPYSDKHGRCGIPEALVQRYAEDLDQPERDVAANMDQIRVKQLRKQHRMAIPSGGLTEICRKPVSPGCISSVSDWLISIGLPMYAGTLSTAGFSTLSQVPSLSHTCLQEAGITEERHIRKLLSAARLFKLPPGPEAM
UniProt O95486: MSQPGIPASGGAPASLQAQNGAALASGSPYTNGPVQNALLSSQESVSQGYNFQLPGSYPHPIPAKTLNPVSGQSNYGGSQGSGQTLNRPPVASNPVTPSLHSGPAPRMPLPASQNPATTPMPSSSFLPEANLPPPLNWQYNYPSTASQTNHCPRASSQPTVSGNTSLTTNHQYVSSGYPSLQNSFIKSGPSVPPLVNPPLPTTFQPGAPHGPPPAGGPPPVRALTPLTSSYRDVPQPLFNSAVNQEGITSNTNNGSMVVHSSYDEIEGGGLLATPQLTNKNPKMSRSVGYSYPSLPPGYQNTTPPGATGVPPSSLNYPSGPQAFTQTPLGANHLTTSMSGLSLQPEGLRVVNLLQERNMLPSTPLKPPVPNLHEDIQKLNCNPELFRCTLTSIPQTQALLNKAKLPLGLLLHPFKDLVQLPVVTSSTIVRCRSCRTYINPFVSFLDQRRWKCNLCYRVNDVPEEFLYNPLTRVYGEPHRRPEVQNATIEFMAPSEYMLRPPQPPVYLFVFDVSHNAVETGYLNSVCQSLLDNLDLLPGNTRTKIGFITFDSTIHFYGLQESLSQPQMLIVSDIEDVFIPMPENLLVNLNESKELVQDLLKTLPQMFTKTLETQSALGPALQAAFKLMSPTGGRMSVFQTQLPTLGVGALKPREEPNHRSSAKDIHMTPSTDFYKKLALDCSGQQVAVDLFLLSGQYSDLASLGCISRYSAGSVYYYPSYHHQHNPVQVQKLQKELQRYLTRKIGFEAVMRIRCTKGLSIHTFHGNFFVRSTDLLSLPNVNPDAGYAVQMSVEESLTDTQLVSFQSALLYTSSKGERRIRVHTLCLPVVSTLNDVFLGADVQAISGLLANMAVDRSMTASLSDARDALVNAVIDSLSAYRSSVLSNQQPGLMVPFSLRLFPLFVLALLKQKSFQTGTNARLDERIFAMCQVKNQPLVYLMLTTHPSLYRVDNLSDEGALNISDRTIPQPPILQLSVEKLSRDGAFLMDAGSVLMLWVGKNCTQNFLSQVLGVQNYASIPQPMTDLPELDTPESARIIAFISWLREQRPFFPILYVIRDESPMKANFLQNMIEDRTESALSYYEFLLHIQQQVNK

The other results are listed elsewhere or left out. Most entries show no effect beyond the scatter of the controls.

Compound in this assay: Cc1nc(Nc2ncc(C(=O)Nc3c(C)cccc3Cl)s2)cc(N2CCN(CCO)CC2)n1 [dasatinib]
The experiment in a line: log2 fold change of tryptic peptide abundance, ligand vs vehicle (limited proteolysis) (log2 ratio); higher = more trypsin-susceptible (destabilized). As to conditions: ligand concentration: 5 uM; sample: K562 cleared lysate.
Turning to “RPS6KA4 (peptide sequence: SVENAPLAK, peptide start residue: 721) (UniProt O75676)”, the log2 fold change was -0.404. The same measure for “FAM13A (peptide sequence: LRDFEDNFFR, peptide start residue: 969) (UniProt O94988)”: 0.197; for “PCNT (peptide sequence: DVPSGHTR, peptide start residue: 3254) (UniProt O95613)”: -0.166. On to “PDE8B (peptide sequence: IHSMTIEAPITK, peptide start residue: 384) (UniProt O95263)”, for which the log2 fold change is -0.103. With “SASH1 (peptide sequence: KPSTEGGEEHVFENSPVLDER, peptide start residue: 283) (UniProt O94885)” the figure was 0.962.

With “DFFB (peptide sequence: HSINPYSNR, peptide start residue: 239) (UniProt O76075)”, the log2 fold change was -0.0498. With “ACSL3 (peptide sequence: VGAPLVCCEIK, peptide start residue: 497) (UniProt O95573)” the figure was 0.265; with “SEC24A (peptide sequence: AKLPLGLLLHPFK, peptide start residue: 403) (UniProt O95486)”, -0.441.
